The list shows only some results of the screen, not a fair sample: it gathers tests that were run many times, whatever their T/C, doses with no T/C, and many T/C values between a quarter and a half above the control. Other doses and runs of a compound stand elsewhere. T/C is the treated group as % of the vehicle group. Some doses have a count of surviving animals in place of a T/C: the source files T/C as zero there, which appears to mark a toxic dose or a test without result, not a measured value. Some survivor counts are full or nearly so, which does not show that the dose was tolerated: the source hardly ever lists a survival T/C far under the control, and the zero likely stands for such cases as well. Counts of survivors are from the toxicity check (mostly the fifth day) where no day follows; animals may have died later. Schedules are NCI's codes, taken here to give the interval after Q, in days (D) or hours (H), and the number of doses after X. Some entries were tested several times; their values stand side by side, smallest first. Where survival is the endpoint, this PubChem deposit counts one and a half times the control or more as active, and values a quarter to a half above the control carry no call in these data; other NCI protocols may use other cut-offs.
Test system: L1210 leukemia ip in BDF1 mice, survival T/C
Test: NCI In Vivo Anticancer Drug Screen. Data for tumor model L1210 Leukemia (intraperitoneal) in B6D2F1 (BDF1) mice
Conditions: T/C endpoint: mean survival time, higher T/C = longer survival

`CCN(CC)CCSC(=O)C(O)(c1ccccc1)C1CCCCC1` (configuration not stated) was tested, and the survivor count (dose: 150.0 mg/kg/injection, schedule: Q01DX001 (ip), vehicle: other) was 3 of 6 and the survivor count (dose: 300.0 mg/kg/injection, schedule: Q01DX001 (ip), vehicle: other) was 0 of 6.
In the case of `CCNC(=O)N(CC)N=O`, the T/C (dose: 400.0 mg/kg/injection, schedule: Q01DX001 (ip), vehicle: saline) was 144 % of control, the survivor count (dose: 600.0 mg/kg/injection, schedule: Q01DX001 (ip), vehicle: saline) was 6 of 6 and the survivor count (dose: 800.0 mg/kg/injection, schedule: Q01DX001 (ip), vehicle: saline) was 2 of 6. For the same molecule, the survivor count (dose: 1000.0 mg/kg/injection, schedule: Q01DX001 (ip), vehicle: saline) was 0 of 6.
For `COc1cccc2c1C(=O)c1c(O)c3c(c(O)c1C2=O)C[C@@](O)(C(=O)COC(=O)Cc1cccc2ccccc12)C[C@@H]3OC1CC(N)C(O)C(C)O1` (some centres not stated), the survivor count (dose: 0.25 mg/kg/injection, schedule: Q04DX003 (ip), vehicle: water) was 6 of 6, the survivor count (dose: 0.5 mg/kg/injection, schedule: Q04DX003 (ip), vehicle: water) was 6 of 6 and the survivor count (dose: 1.0 mg/kg/injection, schedule: Q04DX003 (ip), vehicle: water) was 6 of 6. For the same molecule, the survivor count (dose: 2.0 mg/kg/injection, schedule: Q04DX003 (ip), vehicle: water) was 6 of 6, the survivor count (dose: 4.0 mg/kg/injection, schedule: Q04DX003 (ip), vehicle: water) was 6 of 6 and the survivor count (dose: 8.0 mg/kg/injection, schedule: Q04DX003 (ip), vehicle: water) was 6 of 6. For the same molecule, the survivor count (dose: 16.0 mg/kg/injection, schedule: Q04DX003 (ip), vehicle: water) was 6 of 6.
`Cc1ccc([P+](Cc2ccc(Cl)cc2Cl)(c2ccc(C)cc2)c2ccc(C)cc2)cc1` was tested, and the survivor count (dose: 25.0 mg/kg/injection, schedule: Q04DX003 (ip), vehicle: Klucel (hydroxypropylcellulose) (HPC)) was 1 of 6 and 6 of 6, the survivor count (dose: 50.0 mg/kg/injection, schedule: Q04DX003 (ip), vehicle: Klucel (hydroxypropylcellulose) (HPC)) was 0 of 6 and the survivor count (dose: 100.0 mg/kg/injection, schedule: Q04DX003 (ip), vehicle: Klucel (hydroxypropylcellulose) (HPC)) was 0 of 6. The survivor count (dose: 200.0 mg/kg/injection, schedule: Q04DX003 (ip), vehicle: Klucel (hydroxypropylcellulose) (HPC)) was 0 of 6 and the survivor count (dose: 400.0 mg/kg/injection, schedule: Q04DX003 (ip), vehicle: Klucel (hydroxypropylcellulose) (HPC)) was 0 of 6.
`[O-][n+]1c(Cl)cccc1Cl` was tested, and the survivor count (dose: 75.0 mg/kg/injection, schedule: Q01DX001 (ip), vehicle: carboxymethylcellulose (CMC)) was 2 of 6, the survivor count (dose: 150.0 mg/kg/injection, schedule: Q01DX001 (ip), vehicle: carboxymethylcellulose (CMC)) was 0 of 6 and the survivor count (dose: 300.0 mg/kg/injection, schedule: Q01DX001 (ip), vehicle: carboxymethylcellulose (CMC)) was 0 of 6.
`Cc1ccc(NCc2ccccc2)cc1` was tested, and the survivor count (dose: 400.0 mg/kg/injection, schedule: Q04DX003 (ip), vehicle: other) was 2 of 6.

Reference: PubChem BioAssay AID248 (DTP/NCI, 2004)
